These are yes or no findings as the source states them, for the method shown. In cells and extracts the contact can be indirect. Some results given as binding are weak or reduced against the parent protein; the word gives no strength.

By UniProt entry, the sequences of proteins in these tests, tags left out.
UniProt P25440: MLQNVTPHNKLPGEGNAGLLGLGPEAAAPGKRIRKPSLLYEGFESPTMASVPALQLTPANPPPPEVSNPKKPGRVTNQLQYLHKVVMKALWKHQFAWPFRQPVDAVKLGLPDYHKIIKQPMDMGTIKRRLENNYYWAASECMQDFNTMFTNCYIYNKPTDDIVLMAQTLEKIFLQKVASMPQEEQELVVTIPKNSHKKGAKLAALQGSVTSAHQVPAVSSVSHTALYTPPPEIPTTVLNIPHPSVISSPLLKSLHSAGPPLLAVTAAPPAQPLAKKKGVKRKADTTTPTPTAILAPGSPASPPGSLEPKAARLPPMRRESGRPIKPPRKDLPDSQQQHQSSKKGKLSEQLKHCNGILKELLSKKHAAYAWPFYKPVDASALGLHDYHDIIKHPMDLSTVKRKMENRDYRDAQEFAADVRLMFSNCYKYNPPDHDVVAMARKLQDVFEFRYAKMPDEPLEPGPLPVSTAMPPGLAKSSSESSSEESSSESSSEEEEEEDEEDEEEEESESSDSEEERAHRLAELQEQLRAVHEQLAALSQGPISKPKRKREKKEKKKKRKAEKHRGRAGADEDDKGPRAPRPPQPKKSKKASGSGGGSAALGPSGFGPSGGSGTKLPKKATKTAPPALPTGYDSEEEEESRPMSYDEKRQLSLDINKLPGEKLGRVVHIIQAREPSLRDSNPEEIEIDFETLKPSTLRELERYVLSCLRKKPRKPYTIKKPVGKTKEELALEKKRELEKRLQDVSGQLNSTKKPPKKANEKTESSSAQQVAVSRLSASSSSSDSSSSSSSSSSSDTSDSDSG
UniProt P98177: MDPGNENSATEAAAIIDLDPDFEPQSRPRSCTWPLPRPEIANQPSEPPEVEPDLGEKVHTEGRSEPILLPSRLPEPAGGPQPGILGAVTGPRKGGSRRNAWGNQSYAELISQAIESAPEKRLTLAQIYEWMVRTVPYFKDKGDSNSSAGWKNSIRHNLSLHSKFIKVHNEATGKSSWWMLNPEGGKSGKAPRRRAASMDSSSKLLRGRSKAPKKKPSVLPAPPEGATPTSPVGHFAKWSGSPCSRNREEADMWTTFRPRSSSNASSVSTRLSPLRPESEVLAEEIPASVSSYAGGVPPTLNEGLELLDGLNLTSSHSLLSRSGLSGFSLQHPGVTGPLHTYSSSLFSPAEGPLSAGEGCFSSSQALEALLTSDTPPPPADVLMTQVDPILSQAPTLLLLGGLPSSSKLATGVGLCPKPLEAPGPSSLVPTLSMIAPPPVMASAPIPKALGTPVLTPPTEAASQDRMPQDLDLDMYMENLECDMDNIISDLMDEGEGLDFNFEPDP

The assay has as its target Bromodomain-containing protein 2 (human) (UniProt P25440). As to the kind of experiment: co-IP; IP analysis of BRD2 and FOXO4 (Fig. 6C); cells and conditions not told.

“FOXO4 wild-type (from UniProt P98177 1-505)”: the binding result was “binds”.
